# This is one part of the list.
# B1: Tp0751, 83732 (protein)
# chain: MSYYHHHHHHLESTSLYKKAGFQHGHVPPRRIPPHDTFGALPTAALPSNARDTAAHPSDTADNTSGSSTTTDPRSHGNAPPAPVGGAAQTHTQPPVQTAMRIALWNRATHGEQGALQHLLAGLWIQTEISPNSGDIHPLLFFDREHAEITFSRASVQEIFLVDSAHTHRKTVSFLTRNTAISSIRRRLEVTFESHEVIHVRAVEDVARLKIGSTSMWDGQYTRYHAGPASAPSP
# Columns and labels:
# Assay in all cases: glycan array binding signal (z-score within array); higher = stronger binding
# Conditions in all cases: glycan notation: IUPAC condensed, linker removed
# [1] = biological target: Gal(b1-4)GlcNAc(b1-3)Gal(b1-4)GlcNAc(b1-6)[Gal(b1-3)]GalNAc
# Summary of the method: (§1)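 Glycan array data were curated from 3228 arrays in the Consortium for Functional Glycomics database and kept only where the protein sequence was available. Glycan names were converted to IUPAC-condensed notation, and columns mapping to the same glycan were averaged. The binding signal is a within-array Z-score, averaged across arrays of the same protein sequence at different concentrations or buffers and across linkers. Negative Z-scores can be read as non-binding.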
# [2] = biological target: Gal(b1-4)GlcNAc(b1-3)Gal(b1-4)[Fuc(a1-3)]GlcNAc(b1-3)Gal(b1-4)[Fuc(a1-3)]GlcNAc
# Summary of the method: as §1
# [3] = biological target: Gal(b1-4)GlcNAc(b1-3)GalNAc
# Summary of the method: as §1
# [4] = biological target: Gal(b1-4)GlcNAc(b1-3)[Fuc(a1-3)GlcNAc(b1-6)]Gal(b1-4)Glc
# Summary of the method: as §1
# [5] = biological target: Gal(b1-4)GlcNAc(b1-3)[Gal(b1-4)GlcNAc(b1-6)]Gal(b1-4)GlcNAc
# Summary of the method: as §1
# [6] = biological target: Gal(b1-4)GlcNAc(b1-3)[GlcNAc(b1-6)]Gal(b1-4)GlcNAc
# Summary of the method: as §1
# [7] = biological target: Gal(b1-4)GlcNAc(b1-6)Gal(b1-4)GlcNAc
# Summary of the method: as §1
# [8] = biological target: Gal(b1-4)GlcNAc(b1-6)GalNAc
# Summary of the method: as §1
# [9] = biological target: Gal(b1-4)GlcNAc(b1-6)[Gal(b1-3)]GalNAc
# Summary of the method: as §1
# [10] = biological target: Gal(b1-4)GlcNAc(b1-6)[Gal(b1-4)GlcNAc(b1-3)]GalNAc
# Summary of the method: as §1
# Gal(b1-4)GlcNAc6P = biological target: Gal(b1-4)GlcNAc6P
# Summary of the method: as §1
# Gal(b1-6)Gal = biological target: Gal(b1-6)Gal
# Summary of the method: as §1
# Gal3S(b1-3)GalNAc = biological target: Gal3S(b1-3)GalNAc
# Summary of the method: as §1
# Gal3S(b1-3)GlcNAc = biological target: Gal3S(b1-3)GlcNAc
# Summary of the method: as §1
# [11] = biological target: Gal3S(b1-3)[Fuc(a1-4)]GlcNAc
# Summary of the method: as §1
# Gal3S(b1-4)Glc = biological target: Gal3S(b1-4)Glc
# Summary of the method: as §1
# Gal3S(b1-4)Glc6S = biological target: Gal3S(b1-4)Glc6S
# Summary of the method: as §1
# Gal3S(b1-4)GlcNAc = biological target: Gal3S(b1-4)GlcNAc
# Summary of the method: as §1
# [12] = biological target: Gal3S(b1-4)[Fuc(a1-3)]Glc6S
# Summary of the method: as §1
# [13] = biological target: Gal3S(b1-4)[Fuc(a1-3)]GlcNAc
# Summary of the method: as §1
# [14] = biological target: Gal3S(b1-4)[Fuc(a1-3)]GlcNAc6S
# Summary of the method: as §1
# Gal3S4S(b1-4)GlcNAc = biological target: Gal3S4S(b1-4)GlcNAc
# Summary of the method: as §1
# Gal3S6S(b1-4)GlcNAc = biological target: Gal3S6S(b1-4)GlcNAc
# Summary of the method: as §1
# Gal3S6S(b1-4)GlcNAc6S = biological target: Gal3S6S(b1-4)GlcNAc6S
# Summary of the method: as §1
# Gal4S(b1-4)GlcNAc = biological target: Gal4S(b1-4)GlcNAc
# Summary of the method: as §1
# Gal4S6S(b1-4)GlcNAc = biological target: Gal4S6S(b1-4)GlcNAc
# Summary of the method: as §1
# Gal6P(b1-4)GlcNAc = biological target: Gal6P(b1-4)GlcNAc
# Summary of the method: as §1
# Gal6S(b1-3)GlcNAc = biological target: Gal6S(b1-3)GlcNAc
# Summary of the method: as §1
# Gal6S(b1-3)GlcNAc6S = biological target: Gal6S(b1-3)GlcNAc6S
# Summary of the method: as §1
# Gal6S(b1-4)Glc = biological target: Gal6S(b1-4)Glc
# Summary of the method: as §1
# Gal6S(b1-4)Glc6S = biological target: Gal6S(b1-4)Glc6S
# Summary of the method: as §1
# Gal6S(b1-4)GlcNAc = biological target: Gal6S(b1-4)GlcNAc
# Summary of the method: as §1
# Gal6S(b1-4)GlcNAc6S = biological target: Gal6S(b1-4)GlcNAc6S
# Summary of the method: as §1
# GalNAc(a1-3)Gal = biological target: GalNAc(a1-3)Gal
# Summary of the method: as §1
# GalNAc(a1-3)GalNAc = biological target: GalNAc(a1-3)GalNAc
# Summary of the method: as §1
# [15] = biological target: GalNAc(a1-3)GalNAc(a1-3)Gal(a1-4)Gal(b1-4)GlcNAc
# Summary of the method: as §1
# [16] = biological target: GalNAc(a1-3)GalNAc(b1-3)Gal(a1-4)Gal(b1-4)Glc
# Summary of the method: as §1
# GalNAc(b1-3)Gal = biological target: GalNAc(b1-3)Gal
# Summary of the method: as §1
# [17] = biological target: GalNAc(b1-3)Gal(a1-4)Gal(b1-4)GlcNAc
# Summary of the method: as §1
# [18] = biological target: GalNAc(b1-3)Gal(a1-4)Gal(b1-4)GlcNAc(b1-3)Gal(b1-4)Glc
# Summary of the method: as §1
# [19] = biological target: GalNAc(b1-3)Gal(a1-6)Gal(b1-4)Glc
# Summary of the method: as §1
# GalNAc(b1-3)GalNAc = biological target: GalNAc(b1-3)GalNAc
# Summary of the method: as §1
# GalNAc(b1-3)GlcNAc = biological target: GalNAc(b1-3)GlcNAc
# Summary of the method: as §1
# GalNAc(b1-4)Gal(b1-4)Glc = biological target: GalNAc(b1-4)Gal(b1-4)Glc
# Summary of the method: as §1
# GalNAc(b1-4)GlcNAc = biological target: GalNAc(b1-4)GlcNAc
# Summary of the method: as §1
binder,measurement,setting,value
B1,glycan array binding signal (z-score),[1],-0.299
same,glycan array binding signal (z-score),[2],-0.33
same,glycan array binding signal (z-score),[3],-0.427
same,glycan array binding signal (z-score),[4],-0.754
same,glycan array binding signal (z-score),[5],-0.425
same,glycan array binding signal (z-score),[6],-0.712
same,glycan array binding signal (z-score),[7],-0.27
same,glycan array binding signal (z-score),[8],0.448
same,glycan array binding signal (z-score),[9],-0.123
same,glycan array binding signal (z-score),[10],0.39
same,glycan array binding signal (z-score),Gal(b1-4)GlcNAc6P,0.109
same,glycan array binding signal (z-score),Gal(b1-6)Gal,-0.539
same,glycan array binding signal (z-score),Gal3S(b1-3)GalNAc,3.13
same,glycan array binding signal (z-score),Gal3S(b1-3)GlcNAc,0.677
same,glycan array binding signal (z-score),[11],0.145
same,glycan array binding signal (z-score),Gal3S(b1-4)Glc,5.83
same,glycan array binding signal (z-score),Gal3S(b1-4)Glc6S,0.706
same,glycan array binding signal (z-score),Gal3S(b1-4)GlcNAc,-0.267
same,glycan array binding signal (z-score),[12],0.285
same,glycan array binding signal (z-score),[13],-0.325
same,glycan array binding signal (z-score),[14],1.94
same,glycan array binding signal (z-score),Gal3S4S(b1-4)GlcNAc,0.248
same,glycan array binding signal (z-score),Gal3S6S(b1-4)GlcNAc,0.257
same,glycan array binding signal (z-score),Gal3S6S(b1-4)GlcNAc6S,2.54
same,glycan array binding signal (z-score),Gal4S(b1-4)GlcNAc,-0.171
same,glycan array binding signal (z-score),Gal4S6S(b1-4)GlcNAc,0.22
same,glycan array binding signal (z-score),Gal6P(b1-4)GlcNAc,-0.407
same,glycan array binding signal (z-score),Gal6S(b1-3)GlcNAc,-0.724
same,glycan array binding signal (z-score),Gal6S(b1-3)GlcNAc6S,2.18
same,glycan array binding signal (z-score),Gal6S(b1-4)Glc,-0.008
same,glycan array binding signal (z-score),Gal6S(b1-4)Glc6S,1.12
same,glycan array binding signal (z-score),Gal6S(b1-4)GlcNAc,-0.379
same,glycan array binding signal (z-score),Gal6S(b1-4)GlcNAc6S,0.444
same,glycan array binding signal (z-score),GalNAc(a1-3)Gal,-0.699
same,glycan array binding signal (z-score),GalNAc(a1-3)GalNAc,-0.699
same,glycan array binding signal (z-score),[15],-0.38
same,glycan array binding signal (z-score),[16],-0.721
same,glycan array binding signal (z-score),GalNAc(b1-3)Gal,0.362
same,glycan array binding signal (z-score),[17],0.188
same,glycan array binding signal (z-score),[18],-0.654
same,glycan array binding signal (z-score),[19],-0.385
same,glycan array binding signal (z-score),GalNAc(b1-3)GalNAc,-0.52
same,glycan array binding signal (z-score),GalNAc(b1-3)GlcNAc,0.193
same,glycan array binding signal (z-score),GalNAc(b1-4)Gal(b1-4)Glc,0.173
same,glycan array binding signal (z-score),GalNAc(b1-4)GlcNAc,0.591
